The full ranking holds about 33,000 sequences; the median of “E-score (-0.5 to 0.5)” is about -0.0014, and the highest 2% start at about 0.25. This is one part of the list.
What follows are sequences tested against T1, Cad1 (UniProt P24813) (assay: PBM E-score (8-mer binding enrichment) (E-score (-0.5 to 0.5)); higher = stronger / more preferred TF binding). Conditions: protein concentration: 100 nM; construct: GST-full length.
T1 sequence: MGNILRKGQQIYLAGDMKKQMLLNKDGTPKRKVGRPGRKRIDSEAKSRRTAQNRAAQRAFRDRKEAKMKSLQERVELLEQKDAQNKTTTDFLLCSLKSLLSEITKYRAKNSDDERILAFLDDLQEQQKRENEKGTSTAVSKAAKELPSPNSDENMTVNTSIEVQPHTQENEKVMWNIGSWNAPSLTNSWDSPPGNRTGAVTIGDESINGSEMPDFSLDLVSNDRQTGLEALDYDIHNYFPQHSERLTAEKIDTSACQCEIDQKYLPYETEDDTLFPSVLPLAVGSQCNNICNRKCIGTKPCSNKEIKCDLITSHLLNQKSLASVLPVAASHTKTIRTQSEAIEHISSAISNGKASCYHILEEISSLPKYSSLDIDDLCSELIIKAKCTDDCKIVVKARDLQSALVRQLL
How it was run: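 Using PURExpress in vitro transcription/translation, GST-tagged yeast transcription factors were made in full-length or DNA-binding-domain form. These were applied at about 100-200 nM to double-stranded universal all-10-mer Agilent arrays, and bound protein was detected with fluorescent anti-GST. Scans were normalised with masliner before the Universal PBM Analysis Suite assigned E-scores to ungapped eight-base words pooled with their reverse complements.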

Row | Sequence | PBM E-score
1 | AAGCGCAG | 0.0697
2 | ATTATTTA | 0.234
3 | ATATTCGA | 0.128
4 | TCTCTCCA | -0.192
5 | TCCCAGAA | -0.0764
6 | CCTTACTA | 0.211
7 | ACACTGTA | -0.1
8 | CCCGAATC | -0.144
9 | TCGCCTCA | -0.00571
10 | GTATGCGA | 0.0739
11 | AGCGTACC | -0.0992
12 | ACAGATAA | 0.15
13 | AATCAATC | 0.106
14 | CTCCGTTA | -0.0469
15 | GATGTTAA | 0.0103
16 | GGTCATAA | -0.0218
17 | ACGTCAAG | -0.0113
18 | AAGGCACA | -0.0665
19 | ACCCACTA | 0.107
20 | TAGGGTAA | 0.0651
21 | ACGTGAAA | 0.139
22 | ATCATGAT | 0.211
23 | CGCCATTC | -0.00501
24 | CCTCCCCC | -0.343
25 | AGTGCCCC | -0.176

Row | Sequence | PBM E-score
26 | CATCGAGG | -0.238
27 | GTGCTCAA | 0.0739
28 | AGAAAGTA | 0.0167
29 | GGCGCGAC | 0.0848
30 | CCGTGCAC | 0.213
31 | AAATGCCA | -0.0657
32 | CCCGCAGG | -0.23
33 | TAGTACAA | 0.11
34 | CCCGTGAG | -0.0452
35 | AAAAGCCA | 0.141
36 | CATCGGGG | -0.174
37 | AAAGGCTG | -0.135
38 | CGCACTTA | 0.103
39 | TCGGTACA | -0.0456
40 | ACGTCAGG | -0.0808
41 | CACTTCTA | -0.0605
42 | AAGAACGA | 0.11
43 | CTGATCAC | -0.0445
44 | GCTTGGTA | 0.184
45 | AGGTCCTA | -0.137
46 | GGATGGGA | -0.155
47 | CATGGTAC | 0.0416
48 | CGTGGAAC | 0.0529
49 | ATTGTGGA | -0.0289
50 | ACGTGAAC | -0.114

As entered above:
CCGTGCAC – PBM E-score: 0.213
TAGTACAA – PBM E-score: 0.11
CACTTCTA – PBM E-score: -0.0605
CTGATCAC – PBM E-score: -0.0445
AAAAGCCA – PBM E-score: 0.141
AAAGGCTG – PBM E-score: -0.135

More results follow.

Row | Sequence | PBM E-score
51 | GACGGGGA | -0.19
52 | CGCGGGCC | 0.211
53 | CAGATGCC | -0.141
54 | CCATTCAG | 0.136
55 | CACTACAG | 0.0204
56 | CGGAGTAC | -0.167
57 | GGTAACCA | -0.117
58 | ATGTAGTC | 0.0234
59 | GCTTTGAA | 0.108
60 | TGATCCCA | -0.042
61 | GCCCTTCC | -0.221
62 | CAATTTGC | 0.0647
63 | AAGCGTTA | -0.0772
64 | ATTTAGAG | 0.0426
65 | ACCTCAGT | -0.0777
66 | AGTGAGTC | -0.0203
67 | AACTGTCT | -0.015
68 | CCGTTTAG | 0.00061
69 | ATGGTGGA | -0.14
70 | CCTCAAAG | -0.171
71 | AGGGTCGA | 0.0333
72 | AGCAGTGA | 0.163
73 | GCTGGTCA | -0.00985
74 | ATATGCAG | 0.105
75 | ACGCTAAC | 0.0893

Row | Sequence | PBM E-score
76 | GCGACCGC | 0.0307
77 | ATGCCGGC | 0.089
78 | GTGCTGGA | -0.106
79 | CTAGATGA | -0.147
80 | CAGGCACA | -0.228
81 | AGAGGTGC | -0.0451
82 | GTAATAAC | 0.106
83 | GAGGTTTA | 0.00031
84 | CCTGTGGA | -0.3
85 | GCAAGATA | 0.129
86 | AAGGAAGC | -0.0888
87 | TAGAACCA | -0.0883
88 | CCCCCAAC | -0.268
89 | GTAGCAGA | 0.149
90 | ACCCCGCG | -0.166
91 | ATCGGACC | -0.0367
92 | GACGCCAC | -0.103
93 | CTGATAAG | 0.166
94 | CCGTCATA | -0.0187
95 | CAATTAGC | 0.00571
96 | ACACTTTA | 0.0868
97 | ACCAATCA | 0.032
98 | GTCTTTCA | -0.203
99 | ACGTTTGC | 0.0814
100 | ACAGACAT | 0.0522

Row | Sequence | PBM E-score
101 | TACCATGA | -0.103
102 | AGGGCCCG | -0.21
103 | ACTTGTCT | 0.172
104 | AGACGGGA | -0.0621
105 | ATTCTCCA | 0.0671
106 | CCCCCACA | -0.453
107 | CCACGCCC | -0.267
108 | ACGTCGAT | 0.178
109 | ACTAACTC | -0.0331
110 | ACATAAAA | 0.229
111 | AAATCAGA | 0.0843
112 | CCCCGGAA | -0.247
113 | CAACCTGG | -0.0297
114 | CTGCCGAC | -0.0175
115 | GATAGTAC | 0.0176
116 | AACAGTGG | -0.00493
117 | ATCTTTCG | -0.0314
118 | CCTACCCC | -0.248
119 | ATCGACAC | 0.081
120 | ACGGTGAC | -0.102
121 | CTTCACAA | -0.0814
122 | ACAATGAG | -0.146
123 | CCACGCTC | -0.0899
124 | ACCGGGGC | -0.162
125 | CACGGTGG | 0.0104

Row | Sequence | PBM E-score
126 | GCGAAGTA | 0.0916
127 | AACCGCTT | 0.0439
128 | ATTCGCTG | 0.146
129 | ATCGGGAG | 0.0171
130 | GACCGCGC | 0.0162
131 | CGAGAAAC | -0.018
132 | AAGCGGAC | 0.0105
133 | CCCTCATA | -0.0953
134 | ATACTTAG | 0.109
135 | GGCCTGCA | -0.248
136 | AGTTTTCG | 0.112
137 | GGGGCAAC | -0.0927
138 | AAGCCCCC | -0.422
139 | CTAAACGC | 0.11
140 | GCATGGGC | -0.213
141 | TACCACCA | 0.0167
142 | ATTTCTGA | 0.0948
143 | AACCAGAT | 0.122
144 | GGGAGTTA | -0.108
145 | CGGACCAA | 0.175
146 | CGGGTCTC | -0.18
147 | AGACTAAC | -0.122
148 | ACCGTAAC | -0.184
149 | TGCTCGAA | -0.0951
150 | CCCTAAAC | -0.0926

Row | Sequence | PBM E-score
151 | ATAGAATG | 0.112
152 | CGCGAGCA | 0.164
153 | GTTTCTGA | 0.142
154 | CGTGCCAA | 0.0666
155 | TCACGCAA | 0.15
156 | CGTCACTC | -0.218
157 | AGGGGCTA | -0.2
158 | CATGTGCG | 0.173
159 | AAATAAAT | 0.314
160 | AGTGGTGG | -0.0881
161 | GAGCTGTA | -0.0985
162 | CCCTGTTA | -0.0423
163 | GGCGGCAC | -0.0382
164 | CTGGGTCA | -0.183
165 | TATAGATA | 0.0297
166 | ATGGACTC | -0.16
167 | ATTCAACG | 0.082
168 | ATTGTAAA | 0.0972
169 | ACCTATAC | -0.126
170 | GGACTCCC | -0.213
171 | AAATACAG | -0.0467
172 | GATATGAC | 0.144
